According to PubChem BioAssay AID248 (DTP/NCI, 2004):
The list is a part of this screen's results and no random one: it gathers tests that were run many times, whatever their T/C, doses with no T/C, and many T/C values between a quarter and a half above the control. Other doses and runs of a compound stand elsewhere. T/C gives the treated animals as a percentage of the vehicle group. Some doses have a count of surviving animals in place of a T/C: the source files T/C as zero there, which appears to mark a toxic dose or a test without result, not a measured value. Some doses without a T/C left all or most animals alive at the check, yet need not have been tolerated: survival well below the control is almost never listed, so the zero probably covers shortened survival too. Counts of survivors are from the toxicity check (mostly the fifth day) where no day follows; animals may have died later. Schedules are NCI's codes, read here as Q, the interval in days (D) or hours (H), X, the number of doses. Some schedules carry Z or #; the key to these is not given. For survival time, this PubChem deposit counts one and a half times the control or more as active, and values a quarter to a half above the control carry no call in these data; other NCI protocols may use other cut-offs. Some doses were run more than once; the results are listed from low to high. Some T/C values carry the count of animals alive at the toxicity check (mostly the fifth day); without a count, all were alive then.

Test system: L1210 leukemia ip in BDF1 mice, survival T/C
Test: NCI In Vivo Anticancer Drug Screen. Data for tumor model L1210 Leukemia (intraperitoneal) in B6D2F1 (BDF1) mice
Details: T/C endpoint: mean survival time, higher T/C = longer survival

Q: How did the T/C (dose: 1.5 mg/kg/injection, schedule: Q01DX005 (oral), vehicle: saline) turn out when O=C(O)c1[nH]c(=O)[nH]c(=O)c1F was run?
A: The T/C was 136 % of control.

Q: And the T/C (dose: 1.5 mg/kg/injection, schedule: Q01DX015 (ip), vehicle: saline)?
A: Its T/C is 143 and 148 % of control.

Q: What about the T/C (dose: 1.5 mg/kg/injection, schedule: Q01DX015 (oral), vehicle: saline) of the same compound?
A: Its T/C is 142 % of control.

Q: And the T/C (dose: 2.0 mg/kg/injection, schedule: Q01DX009 (ip), vehicle: saline with Tween-80)?
A: The T/C was 127 % of control.

Q: What about the T/C (dose: 2.0 mg/kg/injection, schedule: Q01DX009 (ip), vehicle: saline) of the same compound?
A: Its T/C is 133 % of control.

Q: What about the T/C (dose: 2.5 mg/kg/injection, schedule: Q01DX009 (ip), vehicle: saline) of the same compound?
A: Its T/C is 135 % of control.

Q: What about the T/C (dose: 3.0 mg/kg/injection, schedule: Q01DX009 (ip), vehicle: saline) of the same compound?
A: Its T/C is 146 % of control.

Q: And the T/C (dose: 3.0 mg/kg/injection, schedule: Q01DX009 (oral), vehicle: saline)?
A: The T/C was 137 % of control.

Q: And the T/C (dose: 3.0 mg/kg/injection, schedule: Q01DX015 (im), vehicle: saline)?
A: The T/C was 131 % of control.

Q: What about the T/C (dose: 3.0 mg/kg/injection, schedule: Q01DX015 (sc), vehicle: saline) of the same compound?
A: The T/C was 134 % of control.

Q: What about the T/C (dose: 3.0 mg/kg/injection, schedule: Q## X024 (oral), vehicle: saline) of the same compound?
A: Its T/C is 136 % of control.

Q: And the T/C (dose: 5.0 mg/kg/injection, schedule: Q01DX009 (ip), vehicle: saline)?
A: Its T/C is 147 % of control.

Q: And the T/C (dose: 5.0 mg/kg/injection, schedule: Q01DX015 (ip), vehicle: carboxymethylcellulose (CMC))?
A: The T/C was 145 % of control.

Q: What about the T/C (dose: 6.0 mg/kg/injection, schedule: Q01DX009 (ip), vehicle: saline) of the same compound?
A: The T/C was 126 % of control.

Q: And the T/C (dose: 6.0 mg/kg/injection, schedule: Q01DX009 (oral), vehicle: saline)?
A: Its T/C is 139 % of control.

Q: And the T/C (dose: 6.0 mg/kg/injection, schedule: Q01DX015 (oral), vehicle: saline)?
A: Its T/C is 131 % of control.

Q: And the T/C (dose: 7.0 mg/kg/injection, schedule: Q01DX Z (ip), vehicle: methylcellulose (MC))?
A: Its T/C is 146 % of control.

Q: And the T/C (dose: 8.0 mg/kg/injection, schedule: Q01DX009 (ip), vehicle: saline with Tween-80)?
A: Its T/C is 130 % of control.

Q: And the T/C (dose: 8.0 mg/kg/injection, schedule: Q04DX003 (ip), vehicle: saline)?
A: The T/C was 127 % of control [4 of 6 alive].

Q: And the T/C (dose: 10.5 mg/kg/injection, schedule: Q## X008 (oral), vehicle: saline)?
A: Its T/C is 128 % of control.

Q: What about the T/C (dose: 12.0 mg/kg/injection, schedule: Q01DX005 (oral), vehicle: saline) of the same compound?
A: The T/C was 143 % of control.

Q: What about the T/C (dose: 12.0 mg/kg/injection, schedule: Q01DX009 (oral), vehicle: saline) of the same compound?
A: Its T/C is 145 % of control.

Q: What about the T/C (dose: 12.0 mg/kg/injection, schedule: Q01DX015 (oral), vehicle: saline) of the same compound?
A: Its T/C is 131 % of control.

Q: And the T/C (dose: 12.0 mg/kg/injection, schedule: Q## X003 (oral), vehicle: saline)?
A: The T/C was 138 % of control.

Q: What about the T/C (dose: 16.0 mg/kg/injection, schedule: Q04DX003 (ip), vehicle: saline) of the same compound?
A: Its T/C is 140 % of control.

Q: And the T/C (dose: 21.0 mg/kg/injection, schedule: Q## X008 (oral), vehicle: saline)?
A: Its T/C is 125 % of control.

Q: What about the T/C (dose: 24.0 mg/kg/injection, schedule: Q01DX005 (oral), vehicle: saline) of the same compound?
A: Its T/C is 137 % of control.

Q: What about the T/C (dose: 24.0 mg/kg/injection, schedule: Q01DX006 (iv), vehicle: saline) of the same compound?
A: Its T/C is 142 % of control.

Q: What about the T/C (dose: 24.0 mg/kg/injection, schedule: Q01DX015 (ip), vehicle: carboxymethylcellulose (CMC)) of the same compound?
A: Its T/C is 129 and 137 % of control.

Q: What about the T/C (dose: 24.0 mg/kg/injection, schedule: Q01DX015 (sc), vehicle: saline) of the same compound?
A: The T/C was 142 % of control.

Q: What about the survivor count (dose: 24.0 mg/kg/injection, schedule: Q01DX Z (ip), vehicle: methylcellulose (MC)) of the same compound?
A: The survivor count was 6 of 6.

Q: And the T/C (dose: 24.0 mg/kg/injection, schedule: Q## X003 (oral), vehicle: saline)?
A: Its T/C is 147 % of control.

Q: What about the survivor count (dose: 24.0 mg/kg/injection, schedule: Q## X040 (oral), vehicle: saline) of the same compound?
A: The survivor count was 5 of 6.

Q: And the T/C (dose: 42.0 mg/kg/injection, schedule: Q01DX001 (oral), vehicle: saline)?
A: Its T/C is 127 % of control.

Q: What about the T/C (dose: 42.0 mg/kg/injection, schedule: Q## X008 (oral), vehicle: saline) of the same compound?
A: Its T/C is 127 % of control.

Q: And the T/C (dose: 48.0 mg/kg/injection, schedule: Q01DX006 (iv), vehicle: saline)?
A: The T/C was 140 % of control.

Q: And the survivor count (dose: 48.0 mg/kg/injection, schedule: Q## X040 (oral), vehicle: saline)?
A: Its survivor count is 4 of 6.

Q: What about the T/C (dose: 84.0 mg/kg/injection, schedule: Q## X008 (oral), vehicle: saline) of the same compound?
A: The T/C was 135 % of control.

Q: What about the survivor count (dose: 96.0 mg/kg/injection, schedule: Q01DX015 (ip), vehicle: carboxymethylcellulose (CMC)) of the same compound?
A: Its survivor count is 5 of 6.

Q: What about the survivor count (dose: 96.0 mg/kg/injection, schedule: Q01DX015 (ip), vehicle: saline) of the same compound?
A: The survivor count was 6 of 6.

Q: What about the T/C (dose: 96.0 mg/kg/injection, schedule: Q## X003 (oral), vehicle: saline) of the same compound?
A: The T/C was 145 % of control.

Q: And the survivor count (dose: 96.0 mg/kg/injection, schedule: Q## X040 (oral), vehicle: saline)?
A: The survivor count was 6 of 6.

Q: What about the T/C (dose: 178.0 mg/kg/injection, schedule: Q01DX001 (oral), vehicle: saline) of the same compound?
A: Its T/C is 128 % of control.

Q: What about the T/C (dose: 178.0 mg/kg/injection, schedule: Q## X008 (oral), vehicle: saline) of the same compound?
A: Its T/C is 143 % of control.

Q: And the survivor count (dose: 192.0 mg/kg/injection, schedule: Q01DX005 (oral), vehicle: saline)?
A: The survivor count was 6 of 6.

Q: What about the survivor count (dose: 192.0 mg/kg/injection, schedule: Q01DX009 (oral), vehicle: saline) of the same compound?
A: The survivor count was 10 of 10.

Q: And the survivor count (dose: 192.0 mg/kg/injection, schedule: Q01DX015 (im), vehicle: saline)?
A: Its survivor count is 6 of 6.

Q: What about the survivor count (dose: 192.0 mg/kg/injection, schedule: Q01DX015 (ip), vehicle: saline) of the same compound?
A: Its survivor count is 3 of 6.

Q: What about the survivor count (dose: 192.0 mg/kg/injection, schedule: Q01DX015 (oral), vehicle: saline) of the same compound?
A: Its survivor count is 5 of 6.

Q: And the survivor count (dose: 192.0 mg/kg/injection, schedule: Q01DX015 (sc), vehicle: saline)?
A: The survivor count was 6 of 6.

Q: And the T/C (dose: 192.0 mg/kg/injection, schedule: Q## X003 (oral), vehicle: saline)?
A: Its T/C is 135 % of control.

Q: What about the survivor count (dose: 192.0 mg/kg/injection, schedule: Q## X040 (oral), vehicle: saline) of the same compound?
A: Its survivor count is 5 of 6.

Q: And the T/C (dose: 356.0 mg/kg/injection, schedule: Q01DX001 (oral), vehicle: saline)?
A: Its T/C is 147 % of control.

Q: What about the survivor count (dose: 384.0 mg/kg/injection, schedule: Q01DX005 (oral), vehicle: saline) of the same compound?
A: The survivor count was 10 of 10.

Q: What about the survivor count (dose: 384.0 mg/kg/injection, schedule: Q01DX009 (oral), vehicle: saline) of the same compound?
A: The survivor count was 10 of 10.

Q: And the survivor count (dose: 384.0 mg/kg/injection, schedule: Q01DX015 (im), vehicle: saline)?
A: Its survivor count is 1 of 6.

Q: And the survivor count (dose: 384.0 mg/kg/injection, schedule: Q01DX015 (ip), vehicle: saline)?
A: Its survivor count is 0 of 6.

Q: What about the survivor count (dose: 384.0 mg/kg/injection, schedule: Q01DX015 (oral), vehicle: saline) of the same compound?
A: Its survivor count is 3 of 6.

Q: What about the survivor count (dose: 384.0 mg/kg/injection, schedule: Q01DX015 (sc), vehicle: saline) of the same compound?
A: The survivor count was 6 of 6.

Q: And the survivor count (dose: 384.0 mg/kg/injection, schedule: Q## X040 (oral), vehicle: saline)?
A: The survivor count was 2 of 6.

Q: What about the survivor count (dose: 712.0 mg/kg/injection, schedule: Q## X008 (oral), vehicle: saline) of the same compound?
A: Its survivor count is 9 of 10.

Q: And the survivor count (dose: 768.0 mg/kg/injection, schedule: Q01DX005 (oral), vehicle: saline)?
A: Its survivor count is 9 of 10.

Q: And the survivor count (dose: 768.0 mg/kg/injection, schedule: Q## X024 (oral), vehicle: saline)?
A: Its survivor count is 3 of 10.

Q: And the survivor count (dose: 1000.0 mg/kg/injection, schedule: Q## X008 (oral), vehicle: saline)?
A: The survivor count was 3 of 10.

Q: And the survivor count (dose: 1000.0 mg/kg/injection, schedule: Q## X024 (oral), vehicle: saline)?
A: The survivor count was 6 of 10.

Q: What does the source list for OCCNCCN1CCN(CCCN2c3ccccc3Sc3ccc(C(F)(F)F)cc32)CC1?
A: survivor count (dose: 35.0 mg/kg/injection, schedule: Q01DX009 (ip), vehicle: saline): 0 of 6; survivor count (dose: 50.0 mg/kg/injection, schedule: Q04DX003 (ip), vehicle: saline): 1 of 6; survivor count (dose: 55.0 mg/kg/injection, schedule: Q01DX009 (ip), vehicle: saline): 0 of 6; survivor count (dose: 80.0 mg/kg/injection, schedule: Q01DX009 (ip), vehicle: saline): 0 of 6; survivor count (dose: 100.0 mg/kg/injection, schedule: Q04DX003 (ip), vehicle: saline): 1 of 6

Q: c1ccc(-c2c(-c3ccc4c(c3)OCO4)c(-c3ccc4c(c3)OCO4)c(-c3ccccc3)c3ccccc23)cc1 was tested. Which survivor count (dose: 400.0 mg/kg/injection, schedule: Q01DX001 (ip), vehicle: saline with Tween-80) did it give?
A: Its survivor count is 3 of 3.

Q: Which survivor count (dose: 400.0 mg/kg/injection, schedule: Q01DX009 (ip), vehicle: Klucel (hydroxypropylcellulose) (HPC)) does the source give for CCCSc1ccc2c3c(cccc13)C(=O)OC2=O here?
A: The survivor count was 4 of 6.

Q: CC(C)(C)SCCC(=O)NC1CCCCC1 was tested. Which survivor count (dose: 400.0 mg/kg/injection, schedule: Q04DX003 (ip), vehicle: saline) did it give?
A: Its survivor count is 3 of 6.
